From publication doi:10.1101/2020.04.20.051433
No constants are given. Whether binding was seen depends on the method and setting. Some binding calls cover weakened binding; strength is not graded here.

Chains of the proteins cited; added tags and fusions are not shown. Lines headed by an entry give the natural chain unless they say otherwise; changes in a name come on top.
UniProt P08926: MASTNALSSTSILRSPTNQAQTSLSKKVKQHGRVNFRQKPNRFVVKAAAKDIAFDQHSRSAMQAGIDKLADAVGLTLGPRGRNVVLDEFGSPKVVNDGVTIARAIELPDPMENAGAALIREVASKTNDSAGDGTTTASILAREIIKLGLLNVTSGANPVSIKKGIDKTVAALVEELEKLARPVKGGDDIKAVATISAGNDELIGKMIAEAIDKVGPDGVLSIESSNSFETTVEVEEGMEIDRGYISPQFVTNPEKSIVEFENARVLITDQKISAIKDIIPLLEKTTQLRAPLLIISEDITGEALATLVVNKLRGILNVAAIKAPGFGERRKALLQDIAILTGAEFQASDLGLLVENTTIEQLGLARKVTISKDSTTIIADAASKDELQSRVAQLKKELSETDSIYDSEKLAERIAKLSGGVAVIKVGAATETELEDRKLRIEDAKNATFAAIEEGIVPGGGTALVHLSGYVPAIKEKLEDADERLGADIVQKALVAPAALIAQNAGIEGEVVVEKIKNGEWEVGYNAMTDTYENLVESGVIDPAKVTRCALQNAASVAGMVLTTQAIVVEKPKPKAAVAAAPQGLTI
UniProt P08927: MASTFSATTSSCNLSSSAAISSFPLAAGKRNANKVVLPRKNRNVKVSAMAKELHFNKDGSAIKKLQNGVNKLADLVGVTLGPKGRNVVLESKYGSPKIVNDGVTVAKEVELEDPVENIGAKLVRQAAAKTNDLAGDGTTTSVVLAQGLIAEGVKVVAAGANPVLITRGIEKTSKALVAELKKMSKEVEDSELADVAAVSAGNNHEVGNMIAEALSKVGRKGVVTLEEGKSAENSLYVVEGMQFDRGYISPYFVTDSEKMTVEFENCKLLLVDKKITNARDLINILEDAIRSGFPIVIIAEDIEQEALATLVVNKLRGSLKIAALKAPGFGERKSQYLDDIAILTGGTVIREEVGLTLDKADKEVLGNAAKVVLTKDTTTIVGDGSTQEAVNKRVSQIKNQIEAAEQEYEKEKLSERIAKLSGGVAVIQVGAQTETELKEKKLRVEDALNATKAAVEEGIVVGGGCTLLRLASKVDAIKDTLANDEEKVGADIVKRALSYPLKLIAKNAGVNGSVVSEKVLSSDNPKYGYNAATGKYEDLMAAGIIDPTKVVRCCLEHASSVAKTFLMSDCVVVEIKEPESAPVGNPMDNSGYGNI
UniProt Q8H0W1: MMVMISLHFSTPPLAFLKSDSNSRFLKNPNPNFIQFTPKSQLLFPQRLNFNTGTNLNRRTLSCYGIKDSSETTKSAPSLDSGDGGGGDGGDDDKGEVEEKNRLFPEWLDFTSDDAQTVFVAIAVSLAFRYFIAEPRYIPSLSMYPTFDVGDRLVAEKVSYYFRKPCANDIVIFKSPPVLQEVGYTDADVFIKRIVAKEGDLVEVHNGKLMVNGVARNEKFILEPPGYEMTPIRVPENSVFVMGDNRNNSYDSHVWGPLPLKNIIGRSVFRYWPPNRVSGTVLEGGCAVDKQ

How the values were obtained:
[1] = molecular target: T1, Cpn60 tetradecamer (Cpn60_(14)) reconstituted from P. sativum His-Cpn60 α1 and His-Cpn60 β1 (P. sativum) (UniProt P08926+P08927); test: Proteinase K protection
[2] = molecular target: T1, Cpn60 tetradecamer (Cpn60_(14)) reconstituted from P. sativum His-Cpn60 α1 and His-Cpn60 β1 (P. sativum); test: native gel or EMSA
[3] = molecular target: T1, Cpn60 tetradecamer (Cpn60_(14)) reconstituted from P. sativum His-Cpn60 α1 and His-Cpn60 β1 (P. sativum); test: native gel or EMSA; remark: listed apart in the source
[4] = molecular target: T1, Cpn60 tetradecamer (Cpn60_(14)) reconstituted from P. sativum His-Cpn60 α1 and His-Cpn60 β1 (P. sativum); test: native gel or EMSA; remark: listed apart in the source

With “prPlsp1, in vitro translated, radiolabeled (from UniProt Q8H0W1 1-291)” the binding [1] was “binds”.

In the case of “mPlsp1, in vitro translated, radiolabeled (from UniProt Q8H0W1 68-291)”, the binding [2] is reported as “no binding (condition: with 10 mM ATP)”, the binding [3] is reported as “binds” and the binding [1] is reported as “binds”. The binding [4] was “binds”.
